Measurements from paper PMC6756068.

Protein sequences, listed by entry. Tags and fused reporters are not part of them. Lines headed by an entry give the natural chain unless they say otherwise; changes in a name come on top.
UniProt P20936: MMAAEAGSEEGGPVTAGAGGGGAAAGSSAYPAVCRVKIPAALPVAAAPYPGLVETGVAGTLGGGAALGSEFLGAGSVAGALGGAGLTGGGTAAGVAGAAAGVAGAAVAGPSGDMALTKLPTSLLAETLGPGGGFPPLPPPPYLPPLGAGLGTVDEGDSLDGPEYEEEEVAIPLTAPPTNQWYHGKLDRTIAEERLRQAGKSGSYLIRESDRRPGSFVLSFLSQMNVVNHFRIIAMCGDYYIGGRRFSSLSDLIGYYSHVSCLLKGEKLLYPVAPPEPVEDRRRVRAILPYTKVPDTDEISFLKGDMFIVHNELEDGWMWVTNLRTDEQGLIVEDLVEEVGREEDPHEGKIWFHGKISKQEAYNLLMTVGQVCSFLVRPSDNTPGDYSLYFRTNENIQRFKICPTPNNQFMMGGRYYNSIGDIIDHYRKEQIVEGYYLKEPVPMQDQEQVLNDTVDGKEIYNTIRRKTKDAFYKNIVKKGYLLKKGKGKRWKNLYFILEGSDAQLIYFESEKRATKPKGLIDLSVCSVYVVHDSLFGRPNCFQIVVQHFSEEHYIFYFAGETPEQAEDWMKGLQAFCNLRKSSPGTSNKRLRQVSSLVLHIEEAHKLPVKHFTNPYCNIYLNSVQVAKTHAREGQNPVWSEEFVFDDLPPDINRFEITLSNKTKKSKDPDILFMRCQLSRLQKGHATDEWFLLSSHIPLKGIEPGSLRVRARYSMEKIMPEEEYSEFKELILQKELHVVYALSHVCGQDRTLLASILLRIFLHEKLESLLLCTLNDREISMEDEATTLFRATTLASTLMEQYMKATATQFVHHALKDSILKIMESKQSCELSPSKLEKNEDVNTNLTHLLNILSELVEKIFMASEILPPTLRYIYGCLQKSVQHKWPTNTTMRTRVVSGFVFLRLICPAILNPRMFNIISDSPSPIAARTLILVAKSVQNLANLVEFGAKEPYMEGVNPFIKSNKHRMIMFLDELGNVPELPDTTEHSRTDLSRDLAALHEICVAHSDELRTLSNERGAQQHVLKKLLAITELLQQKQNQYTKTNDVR
UniProt P35240: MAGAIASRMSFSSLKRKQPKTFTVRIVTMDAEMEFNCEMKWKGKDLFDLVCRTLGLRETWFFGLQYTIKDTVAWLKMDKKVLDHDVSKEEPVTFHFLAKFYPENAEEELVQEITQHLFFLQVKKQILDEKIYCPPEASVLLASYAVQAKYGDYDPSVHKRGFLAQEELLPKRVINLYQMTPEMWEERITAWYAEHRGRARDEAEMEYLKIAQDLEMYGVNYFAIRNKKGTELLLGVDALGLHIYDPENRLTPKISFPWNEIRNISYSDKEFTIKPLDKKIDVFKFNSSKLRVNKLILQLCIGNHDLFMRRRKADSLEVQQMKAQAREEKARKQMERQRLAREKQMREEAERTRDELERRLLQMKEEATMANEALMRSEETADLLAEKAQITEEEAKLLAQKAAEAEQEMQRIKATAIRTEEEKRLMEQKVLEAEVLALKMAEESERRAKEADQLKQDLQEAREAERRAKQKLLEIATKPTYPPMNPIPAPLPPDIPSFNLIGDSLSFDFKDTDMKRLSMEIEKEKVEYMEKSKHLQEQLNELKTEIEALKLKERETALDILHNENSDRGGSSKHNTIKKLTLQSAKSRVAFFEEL

Columns and labels:
Cerl-RasGAP ΔPH-C2 = Cerl-RasGAP ΔPH-C2 (UniProt P20936); assay: split reporter; BiFC with split cerulean (Cerf, Cerl) constructs cotransfected with pEYFP-C1 into 293T cells, fixed about 48 h later
EGFP-RasGAP ΔPH = EGFP-RasGAP ΔPH (UniProt P20936); assay: co-IP; merlin cotransfected with EGFP-RasGAP constructs in Sc4 cells (merlin-deficient)

| Substance | binding (Cerl-RasGAP ΔPH-C2) | binding (EGFP-RasGAP ΔPH) |
| --- | --- | --- |
| Cerf-merlin (from UniProt P35240 1-595) | no binding | – |
| merlin cotransfected in Sc4 cells (from UniProt P35240 1-595) | – | no binding |

No constants are given. Whether binding was seen depends on the method and setting. Binding seen in cells or lysates may run through a third protein.
